We go through 3 molecules from paper PMC4004540.

By UniProt entry, the sequences of proteins in these tests, tags left out. Where a name states a change or a piece, a line headed by the entry shows the natural chain unless it says otherwise. Chains listed by the source or under a name are the forms on record and can include a tag or linker. Residues count along the entry.
UniProt P30051: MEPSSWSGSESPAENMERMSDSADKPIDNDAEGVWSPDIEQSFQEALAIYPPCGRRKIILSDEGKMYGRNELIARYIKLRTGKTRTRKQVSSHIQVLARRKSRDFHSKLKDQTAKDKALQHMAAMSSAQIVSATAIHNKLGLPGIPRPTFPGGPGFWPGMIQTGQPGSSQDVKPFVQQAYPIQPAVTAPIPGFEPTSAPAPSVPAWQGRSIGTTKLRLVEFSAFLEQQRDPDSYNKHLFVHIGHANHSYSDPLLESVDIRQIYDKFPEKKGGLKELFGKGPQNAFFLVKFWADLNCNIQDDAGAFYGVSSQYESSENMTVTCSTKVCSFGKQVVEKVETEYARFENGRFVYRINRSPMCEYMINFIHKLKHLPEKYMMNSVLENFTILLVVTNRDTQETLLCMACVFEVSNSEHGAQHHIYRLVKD
glutathione S-transferase fused to the TEA domain of mouse TEAD-1 (GST-TEA): residues 1-101 of P30051

The target of assay [1] is T1, FLAG-tagged TRβ1 (pCMX-FLAG-rTRβ1) (UniProt P18113).
T1 sequence: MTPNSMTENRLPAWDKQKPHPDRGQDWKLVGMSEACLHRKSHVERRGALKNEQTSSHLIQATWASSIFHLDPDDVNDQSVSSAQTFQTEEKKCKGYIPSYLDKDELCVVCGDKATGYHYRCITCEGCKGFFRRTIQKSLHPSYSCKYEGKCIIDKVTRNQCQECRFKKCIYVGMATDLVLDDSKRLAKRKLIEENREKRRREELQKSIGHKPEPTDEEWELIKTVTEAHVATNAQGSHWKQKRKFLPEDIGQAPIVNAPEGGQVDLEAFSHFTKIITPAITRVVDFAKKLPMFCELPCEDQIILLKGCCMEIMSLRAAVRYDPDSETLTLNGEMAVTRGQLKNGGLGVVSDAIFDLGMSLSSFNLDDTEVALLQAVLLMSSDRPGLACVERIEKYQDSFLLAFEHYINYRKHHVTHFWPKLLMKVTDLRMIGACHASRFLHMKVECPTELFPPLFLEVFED
The experiment in a line: co-IP; CV-1 cells co-transfected with FLAG-TRβ1 and 6myc-TEAD-1, with or without 1 µM T3 for 24 h; high-salt extract incubated with anti-FLAG M2 affinity gel in 150 mM NaCl, 20 mM Tris HCl pH 7.5, 0.3% Nonidet P-40 at 4°C overnight; Western blot with anti-c-myc.

In assay [2] the target is glutathione S-transferase fused to the TEA domain of mouse TEAD-1 (GST-TEA) (mouse) (UniProt P30051). Put plainly: pull-down; GST fusion protein on glutathione-Sepharose beads incubated with 35S-labeled in vitro translated protein in 150 mM NaCl, 20 mM Tris HCl pH 7.5, 0.3% Nonidet P-40, 1 mM dithiothreitol for 3 h at 4°C; with or without 1 µM T3 for TRα1 and TRβ1; autoradiography; only the target purified.

Results are given in words; binding and its absence hold for the method and conditions named. In cells and extracts the contact can be indirect. Some results given as binding are weak or reduced against the parent protein; the word gives no strength. For part of these data: Tags and fused reporters may be left off the sequences shown.

Turning to “N-terminal six tandem myc-tagged mouse TEAD-1 (6myc-TEAD-1), expressed in CV-1 cells (from UniProt P30051 1-426)”, the binding result in assay [1] was “binds”.

B1: human TRα1, in vitro translated (receptor, UniProt P10827-2 1-410)
chain: MEQKPSKVECGSDPEENSARSPDGKRKRKNGQCSLKTSMSGYIPSYLDKDEQCVVCGDKATGYHYRCITCEGCKGFFRRTIQKNLHPTYSCKYDSCCVIDKITRNQCQLCRFKKCIAVGMAMDLVLDDSKRVAKRKLIEQNRERRRKEEMIRSLQQRPEPTPEEWDLIHIATEAHRSTNAQGSHWKQRRKFLPDDIGQSPIVSMPDGDKVDLEAFSEFTKIITPAITRVVDFAKKLPMFSELPCEDQIILLKGCCMEIMSLRAAVRYDPESDTLTLSGEMAVKREQLKNGGLGVVSDAIFELGKSLSAFNLDDTEVALLQAVLLMSTDRSGLLCVDKIEKSQEAYLLAFEHYVNHRKHNIPHFWPKLLMKVTDLRMIGACHASRFLHMKVECPTELFPPLFLEVFEDQEV
modifications: 35S label
Take B1: the binding entry in assay [2] was “binds”.

B2: human TRβ1 (wild type), in vitro translated (receptor, UniProt P10828-1 1-461)
chain: MTPNSMTENGLTAWDKPKHCPDREHDWKLVGMSEACLHRKSHSERRSTLKNEQSSPHLIQTTWTSSIFHLDHDDVNDQSVSSAQTFQTEEKKCKGYIPSYLDKDELCVVCGDKATGYHYRCITCEGCKGFFRRTIQKNLHPSYSCKYEGKCVIDKVTRNQCQECRFKKCIYVGMATDLVLDDSKRLAKRKLIEENREKRRREELQKSIGHKPEPTDEEWELIKTVTEAHVATNAQGSHWKQKRKFLPEDIGQAPIVNAPEGGKVDLEAFSHFTKIITPAITRVVDFAKKLPMFCELPCEDQIILLKGCCMEIMSLRAAVRYDPESETLTLNGEMAVTRGQLKNGGLGVVSDAIFDLGMSLSSFNLDDTEVALLQAVLLMSSDRPGLACVERIEKYQDSFLLAFEHYINYRKHHVTHFWPKLLMKVTDLRMIGACHASRFLHMKVECPTELFPPLFLEVFED
modifications: 35S-methionine label
With B2, the binding entry in assay [2] is listed as “binds”.
